Assay results taken from the supplement of paper PMC10849652.
The list shows a part of the results.

Chains of the proteins cited; added tags and fusions are not shown. Lines headed by an entry give the natural chain unless they say otherwise; changes in a name come on top.
UniProt Q9UKT8: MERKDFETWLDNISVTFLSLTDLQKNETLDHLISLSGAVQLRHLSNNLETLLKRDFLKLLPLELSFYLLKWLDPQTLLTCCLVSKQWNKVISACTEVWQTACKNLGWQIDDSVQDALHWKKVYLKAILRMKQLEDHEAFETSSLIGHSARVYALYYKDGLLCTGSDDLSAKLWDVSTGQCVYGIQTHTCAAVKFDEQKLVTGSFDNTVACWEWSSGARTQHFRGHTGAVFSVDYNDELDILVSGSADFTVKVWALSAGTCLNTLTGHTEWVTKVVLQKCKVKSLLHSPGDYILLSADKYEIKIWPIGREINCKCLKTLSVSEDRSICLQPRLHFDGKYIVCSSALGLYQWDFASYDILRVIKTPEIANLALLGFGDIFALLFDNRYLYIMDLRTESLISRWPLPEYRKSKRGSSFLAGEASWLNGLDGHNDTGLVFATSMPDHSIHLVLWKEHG
UniProt Q9NSD9: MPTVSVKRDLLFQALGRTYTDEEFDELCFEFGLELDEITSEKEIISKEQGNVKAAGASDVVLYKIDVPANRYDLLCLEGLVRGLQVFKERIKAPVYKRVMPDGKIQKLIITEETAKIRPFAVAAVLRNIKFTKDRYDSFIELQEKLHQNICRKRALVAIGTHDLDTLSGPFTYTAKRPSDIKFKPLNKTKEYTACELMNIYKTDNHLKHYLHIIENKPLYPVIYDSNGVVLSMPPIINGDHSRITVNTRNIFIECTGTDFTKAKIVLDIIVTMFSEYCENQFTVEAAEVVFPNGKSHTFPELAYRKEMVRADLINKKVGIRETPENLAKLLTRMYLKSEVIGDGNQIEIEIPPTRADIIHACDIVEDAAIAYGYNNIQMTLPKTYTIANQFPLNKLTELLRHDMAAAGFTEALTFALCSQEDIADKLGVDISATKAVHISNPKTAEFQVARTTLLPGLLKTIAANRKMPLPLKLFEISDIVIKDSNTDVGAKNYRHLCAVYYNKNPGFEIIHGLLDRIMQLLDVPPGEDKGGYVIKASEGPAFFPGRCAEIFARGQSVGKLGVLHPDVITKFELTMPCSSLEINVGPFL
UniProt Q9NVK5: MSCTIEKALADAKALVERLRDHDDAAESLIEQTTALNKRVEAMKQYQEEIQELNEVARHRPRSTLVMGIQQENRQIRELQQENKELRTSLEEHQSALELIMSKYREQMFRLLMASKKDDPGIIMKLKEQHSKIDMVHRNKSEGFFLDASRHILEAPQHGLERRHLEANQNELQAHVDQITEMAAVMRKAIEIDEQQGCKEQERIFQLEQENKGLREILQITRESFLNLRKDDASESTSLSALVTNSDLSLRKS
UniProt P62942, whole entry, looked up: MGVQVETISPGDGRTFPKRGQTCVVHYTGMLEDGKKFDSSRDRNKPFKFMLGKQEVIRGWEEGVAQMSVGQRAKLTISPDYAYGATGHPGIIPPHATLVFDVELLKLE
UniProt P14324: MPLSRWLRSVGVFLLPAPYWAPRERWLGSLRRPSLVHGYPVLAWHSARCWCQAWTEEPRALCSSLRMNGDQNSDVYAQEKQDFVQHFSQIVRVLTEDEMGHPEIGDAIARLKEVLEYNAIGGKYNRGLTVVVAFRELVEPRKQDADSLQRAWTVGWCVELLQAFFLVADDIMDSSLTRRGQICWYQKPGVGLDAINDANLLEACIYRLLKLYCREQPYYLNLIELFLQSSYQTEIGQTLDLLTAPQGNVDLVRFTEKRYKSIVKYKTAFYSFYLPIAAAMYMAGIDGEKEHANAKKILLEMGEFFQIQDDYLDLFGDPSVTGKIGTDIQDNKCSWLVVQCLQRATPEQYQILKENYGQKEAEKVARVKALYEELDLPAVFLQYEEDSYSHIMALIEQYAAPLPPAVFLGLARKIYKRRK
UniProt Q8N6M3: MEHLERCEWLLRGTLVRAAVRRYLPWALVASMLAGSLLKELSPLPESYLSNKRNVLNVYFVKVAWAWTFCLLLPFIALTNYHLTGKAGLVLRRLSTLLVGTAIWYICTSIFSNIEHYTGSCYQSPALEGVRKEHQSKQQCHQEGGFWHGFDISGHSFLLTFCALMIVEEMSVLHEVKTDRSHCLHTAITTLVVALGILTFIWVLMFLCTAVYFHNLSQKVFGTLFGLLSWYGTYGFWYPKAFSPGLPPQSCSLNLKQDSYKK
UniProt Q9Y613: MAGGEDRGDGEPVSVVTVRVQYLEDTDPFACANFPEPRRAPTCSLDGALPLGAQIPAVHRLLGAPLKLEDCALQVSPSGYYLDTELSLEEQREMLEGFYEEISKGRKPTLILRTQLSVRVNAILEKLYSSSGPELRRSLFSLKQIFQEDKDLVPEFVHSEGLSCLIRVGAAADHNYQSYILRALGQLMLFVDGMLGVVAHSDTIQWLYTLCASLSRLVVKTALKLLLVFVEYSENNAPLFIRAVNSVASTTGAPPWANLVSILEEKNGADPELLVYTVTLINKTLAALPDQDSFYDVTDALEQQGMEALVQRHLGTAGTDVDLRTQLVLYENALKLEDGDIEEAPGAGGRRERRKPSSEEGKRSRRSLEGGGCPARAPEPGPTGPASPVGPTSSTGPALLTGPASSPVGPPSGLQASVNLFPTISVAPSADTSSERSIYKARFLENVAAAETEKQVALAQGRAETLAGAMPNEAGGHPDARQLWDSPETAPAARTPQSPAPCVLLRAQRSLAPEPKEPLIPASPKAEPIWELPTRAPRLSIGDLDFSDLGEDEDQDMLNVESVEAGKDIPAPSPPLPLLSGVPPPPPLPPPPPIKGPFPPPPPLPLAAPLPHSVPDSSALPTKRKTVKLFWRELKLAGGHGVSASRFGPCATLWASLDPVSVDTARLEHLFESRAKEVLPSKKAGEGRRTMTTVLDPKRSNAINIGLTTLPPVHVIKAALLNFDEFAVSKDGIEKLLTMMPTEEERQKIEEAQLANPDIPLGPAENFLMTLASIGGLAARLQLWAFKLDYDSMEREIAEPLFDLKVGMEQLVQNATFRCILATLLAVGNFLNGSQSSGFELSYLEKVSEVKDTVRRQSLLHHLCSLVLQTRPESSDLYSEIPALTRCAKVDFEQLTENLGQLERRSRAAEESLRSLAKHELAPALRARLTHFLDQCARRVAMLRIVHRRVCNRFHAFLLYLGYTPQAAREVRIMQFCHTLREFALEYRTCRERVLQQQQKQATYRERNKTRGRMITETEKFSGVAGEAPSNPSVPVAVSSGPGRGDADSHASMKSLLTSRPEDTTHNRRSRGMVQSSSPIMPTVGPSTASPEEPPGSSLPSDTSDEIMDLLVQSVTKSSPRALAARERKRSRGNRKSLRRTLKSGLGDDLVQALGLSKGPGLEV
UniProt Q96NB1: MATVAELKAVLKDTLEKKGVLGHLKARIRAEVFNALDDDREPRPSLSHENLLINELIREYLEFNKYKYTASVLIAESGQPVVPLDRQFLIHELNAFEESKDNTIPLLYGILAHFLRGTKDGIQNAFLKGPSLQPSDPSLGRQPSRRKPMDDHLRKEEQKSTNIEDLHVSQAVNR
UniProt Q9NVI1: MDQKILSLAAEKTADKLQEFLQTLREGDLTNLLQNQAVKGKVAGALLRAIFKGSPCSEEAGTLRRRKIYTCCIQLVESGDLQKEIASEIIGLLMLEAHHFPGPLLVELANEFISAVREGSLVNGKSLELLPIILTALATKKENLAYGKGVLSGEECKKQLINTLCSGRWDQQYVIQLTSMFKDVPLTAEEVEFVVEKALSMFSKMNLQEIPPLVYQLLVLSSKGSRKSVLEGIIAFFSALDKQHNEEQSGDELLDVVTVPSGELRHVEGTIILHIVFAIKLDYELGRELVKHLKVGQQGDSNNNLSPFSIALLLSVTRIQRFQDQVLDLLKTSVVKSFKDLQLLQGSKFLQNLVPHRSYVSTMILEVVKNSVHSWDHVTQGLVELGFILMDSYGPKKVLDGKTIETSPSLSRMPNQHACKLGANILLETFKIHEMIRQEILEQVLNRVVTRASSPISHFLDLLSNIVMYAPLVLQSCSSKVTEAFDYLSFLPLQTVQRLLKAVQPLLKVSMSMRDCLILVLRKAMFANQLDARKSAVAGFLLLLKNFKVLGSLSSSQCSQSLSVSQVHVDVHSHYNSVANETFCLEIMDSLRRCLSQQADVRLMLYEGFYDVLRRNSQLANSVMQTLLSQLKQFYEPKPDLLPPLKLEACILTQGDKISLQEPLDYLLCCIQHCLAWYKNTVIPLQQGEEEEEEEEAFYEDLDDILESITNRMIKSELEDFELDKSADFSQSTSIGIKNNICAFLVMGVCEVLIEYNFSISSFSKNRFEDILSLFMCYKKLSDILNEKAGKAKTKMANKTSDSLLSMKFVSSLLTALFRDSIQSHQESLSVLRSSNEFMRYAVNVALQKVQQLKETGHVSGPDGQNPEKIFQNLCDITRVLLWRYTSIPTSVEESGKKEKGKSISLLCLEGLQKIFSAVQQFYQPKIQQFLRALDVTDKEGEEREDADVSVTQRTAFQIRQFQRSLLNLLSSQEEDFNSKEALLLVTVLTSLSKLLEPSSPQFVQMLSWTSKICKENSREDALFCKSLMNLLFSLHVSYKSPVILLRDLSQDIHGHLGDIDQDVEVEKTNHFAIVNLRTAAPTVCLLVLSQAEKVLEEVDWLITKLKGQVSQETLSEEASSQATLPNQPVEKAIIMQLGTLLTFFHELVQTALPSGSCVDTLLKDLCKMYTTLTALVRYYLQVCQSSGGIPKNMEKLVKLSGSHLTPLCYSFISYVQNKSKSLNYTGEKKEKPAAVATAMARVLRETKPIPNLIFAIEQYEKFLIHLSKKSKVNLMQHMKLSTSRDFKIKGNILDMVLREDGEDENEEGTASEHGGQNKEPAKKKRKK
UniProt Q14254: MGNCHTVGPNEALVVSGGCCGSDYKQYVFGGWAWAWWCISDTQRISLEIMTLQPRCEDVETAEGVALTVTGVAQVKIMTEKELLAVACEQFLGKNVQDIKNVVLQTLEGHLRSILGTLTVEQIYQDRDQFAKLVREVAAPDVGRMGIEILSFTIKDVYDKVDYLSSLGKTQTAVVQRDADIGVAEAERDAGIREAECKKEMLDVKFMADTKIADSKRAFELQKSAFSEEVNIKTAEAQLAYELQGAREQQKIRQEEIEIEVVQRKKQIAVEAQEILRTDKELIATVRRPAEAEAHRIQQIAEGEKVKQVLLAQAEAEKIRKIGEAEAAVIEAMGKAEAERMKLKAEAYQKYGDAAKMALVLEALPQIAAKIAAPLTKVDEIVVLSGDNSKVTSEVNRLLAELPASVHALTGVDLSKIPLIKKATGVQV

Assays:
Assay in all cases: log2 fold change, soluble protein after heating vs DMSO (PISA); higher = thermal stabilisation; K562 lysate, 10 uM; active = over 0.2 and 3.5 SD of the protein, either way, in both replicates (recomputed)
[1] = compound: C1=CC=C(C=C1)[C@H](COC2=CC3=C(C=C2)NC(=O)N3)NC(=O)C4=CC=CN(C4=O)CC5=CC(=C(C=C5)F)F
Procedure, shortened: (§1)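 Pellets of K562 cells were dounce-homogenised in PBS pH 7.4 with 1 mM MgCl2, and the crude extract was held at 1 mg/mL protein for a 30 min treatment with 10 μM compound. Aliquots were heated for 3 min over 48°C-58°C and pooled before NP-40 was added to 0.5% at 4°C. The supernatant from 21,000xg for 90 min was quantified by TMTpro 16plex LC-MS/MS with channel sums equalised. Values are reported from duplicates as log-two fold change in thermal stability relative to solvent controls.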

[2] = compound: CC1=C(SC2=C1C(=N[C@H](C3=NN=C(N32)C)CC(=O)N)C4=CC=C(C=C4)Cl)C
Procedure, shortened: as §1

[3] = compound: CC1=C2C(=CC=C1)N=C(N(C2=O)C3=CC=CC=C3C)CN4C=NC5=C(N=CN=C54)N
Procedure, shortened: as §1

[4] = compound: Cc1sc2c(c1C)C(c1ccc(Cl)cc1)=N[C@@H](CC(=O)OC(C)(C)C)c1nnc(C)n1-2
Procedure, shortened: as §1

[5] = compound: c1ccc([C@@H]2C[C@H]2NC2CCNCC2)cc1
Procedure, shortened: as §1

Measured: log2 fold change

FBXW2 (UniProt Q9UKT8)
inactive: [1] -0.038 | [2] 0.068 | [3] -0.05 | [4] 0.05 | [5] 0.079

FARSB (UniProt Q9NSD9)
inactive: [1] -0.014 | [2] 0.036 | [3] -0.004 | [4] 0.02 | [5] 0.052

FGFR1OP2 (UniProt Q9NVK5)
inactive: [1] 0.063 | [2] -0.001 | [3] 0.068 | [4] -0.038 | [5] -0.024

FKBP1A (UniProt P62942)
inactive: [1] 0.011 | [2] -0.134 | [3] -0.069 | [4] -0.01 | [5] -0.214

FDPS (UniProt P14324)
inactive: [1] -0.02 | [2] 0.055 | [3] 0.029 | [4] 0.015 | [5] 0.03

FITM2 (UniProt Q8N6M3)
inactive: [1] -0.119 | [2] 0.048

FHOD1 (UniProt Q9Y613)
inactive: [1] -0.041 | [2] 0.006 | [3] 0.043 | [4] 0.029 | [5] 0.027

FOPNL (UniProt Q96NB1)
inactive: [1] -0.005 | [2] -0.078 | [3] -0.072 | [4] -0.019 | [5] 0.068

FANCI (UniProt Q9NVI1)
inactive: [1] -0.051 | [2] -0.009 | [3] 0.029 | [4] 0.015 | [5] 0.088

FLOT2 (UniProt Q14254)
inactive: [1] -0.048 | [2] -0.002 | [3] 0.03 | [4] 0.008 | [5] 0.003
